From US20240336683A1 (published 2024)
Results are given in words; binding and its absence hold for the method and conditions named. Some results given as binding are weak or reduced against the parent protein; the word gives no strength. Sequences can lack the tags named with a protein.

Target: T1, human Siglec 15-HIS tagged recombinant protein (human) (UniProt Q6ZMC9)
T1 sequence (looked up): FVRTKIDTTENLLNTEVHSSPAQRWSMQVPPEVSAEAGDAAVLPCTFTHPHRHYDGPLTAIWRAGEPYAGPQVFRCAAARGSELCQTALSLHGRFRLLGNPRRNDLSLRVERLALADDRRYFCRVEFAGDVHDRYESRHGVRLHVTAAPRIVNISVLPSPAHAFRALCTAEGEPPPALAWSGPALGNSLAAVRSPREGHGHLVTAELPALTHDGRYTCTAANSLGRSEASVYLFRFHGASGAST
Experiment: ELISA for the antibody in monkey plasma; His-tag human Siglec-15 as capture, anti-human IgG HRP

B1: 2020EP032-H11 IgG (antibody, V domains shown)
VH: EVQLVESGGGLVKPGGSLRLSCAASGFTFSSYSMNWVRQAPGKGLEWVSSISSSSSYIYYADSVKGRFTISRDNAKNSLYLQMNSLRAEDTAVYYCARDYRGYSGQNYYGMDVWGQGTTVTVSS
VL: QSALTQPPSVSAAPRQKVTISCSGSSSNIGNNDVSWYQQLPGTVPKLLIYDNNKRPSGIPDRFSGSKSGTSASLGITGLQTGDEADYYCGVWDSSLSGYVFGTGTKVTVL
notes: IgG form expressed in ExpiHEK293-F cells; detected with anti-hFc; also called 2020EP32-H11; H11 mAb
B1 was tested, and the binding was “binds”.
